# Source: PubChem BioAssay AID1053208 (Peter MacCallum Cancer Centre, 2014)
# Aim: 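Find knock-downs that sensitise mouse osteosarcoma cells to doxorubicin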 (primary screen)
# System: mouse osteosarcoma cells, early-passage culture from an engineered mouse model of fibroblastic bone tumour
# Knock-down reagent: siRNA pool against mouse genes, 40 nM
# Duration: about 120 h (48 h before drug, then 72 h with drug)
# Challenge: doxorubicin 100 nM for 72 h, roughly 30-40% inhibitory dose
# Measurement: 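Viability read as ATP luminescence after 72 h of 100 nM doxorubicin or none, duplicate wells averaged, scaled to non-targeting siRNA, then expressed as robust z-scores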
# Scale: viability z-score with doxorubicin and doxorubicin viability vs non-targeting: higher = more viable cells under doxorubicin; viability z-score without drug: higher = more viable cells with knock-down alone; z-score of drug to no-drug ratio: higher = less drug sensitisation by knock-down
# Active means: 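Called active if knock-down leaves viability unchanged without drug (z within -2 to 2) but lowers it with doxorubicin (z at or under -2)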
# Shown is a random part of about 17,000 deposited reagents. 788 of them (4.7%) were called active. 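Calls rest on z-score classes alone; an extra cut-off of viability at most 70% of control was not applied to them.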
Gene,combined z-score class,viability z-score with doxorubicin,viability z-score without drug,z-score of drug to no-drug ratio,doxorubicin viability vs non-targeting,outcome
Rubcn (GeneID 100502698),no change with or without drug,1.24,0.84,0.79,1.05,inactive
Atp6v1g2 (GeneID 66237),no change with or without drug,0.67,0.84,0.22,1,inactive
Ssna1 (GeneID 68475),no change with or without drug,-1.46,0.17,-1.57,0.81,inactive
Fut2 (GeneID 14344),no change with or without drug,0.67,0.34,0.56,1,inactive
Or5b119 (GeneID 258298),no change with or without drug,0,-0.17,0.22,0.94,inactive
Abce1 (GeneID 24015),no change with or without drug,-0.67,-0.51,-0.22,0.88,inactive
Prelid3a (GeneID 225655),no change with or without drug,-0.79,0.51,-1.01,0.87,inactive
Lin7b (GeneID 22342),no change with or without drug,-1.57,-1.69,-0.45,0.8,inactive
Pax4 (GeneID 18506),no change with or without drug,1.35,-0.17,1.69,1.06,inactive
Per2 (GeneID 18627),no change with or without drug,-1.46,1.52,-2.25,0.81,inactive
Zfp410 (GeneID 52708),no change with or without drug,-0.67,0.34,-0.79,0.88,inactive
Inpp4a (GeneID 269180),no change with or without drug,0,0,0.11,0.94,inactive
Slc43a1 (GeneID 72401),no change with or without drug,0,1.52,-0.9,0.94,inactive
Wdr5 (GeneID 140858),no change with or without drug,0.34,-0.84,1.12,0.97,inactive
Or52n2c (GeneID 259061),no change with or without drug,1.46,0.84,1.01,1.07,inactive
A530020G20Rik (GeneID 319839),no change with or without drug,-0.79,-0.51,-0.34,0.87,inactive
Nr5a2 (GeneID 26424),no change with or without drug,0.9,-0.17,1.24,1.02,inactive
Tnfrsf12a (GeneID 27279),no change with or without drug,-0.22,-0.84,0.45,0.92,inactive
Rbsn (GeneID 78287),no change with or without drug,0,-0.17,0.22,0.94,inactive
Cflar (GeneID 12633),no change with or without drug,-0.11,1.18,-0.79,0.93,inactive
Sema4f (GeneID 20355),no change with or without drug,-0.45,-1.01,0.34,0.9,inactive
Defb40 (GeneID 360217),no change with or without drug,0.22,0.17,0.22,0.96,inactive
Bcl3 (GeneID 12051),no change with or without drug,0.34,-1.01,1.24,0.97,inactive
Vmn1r32 (GeneID 171188),no change with or without drug,1.91,1.85,0.79,1.11,inactive
Cep290 (GeneID 216274),no change with or without drug,0,0.51,-0.22,0.94,inactive
Gucy1a2 (GeneID 234889),no change with or without drug,0.34,0.34,0.22,0.97,inactive
Rhov (GeneID 228543),high cell count with doxorubicin only,2.02,1.69,1.01,1.12,inactive
Fgf9 (GeneID 14180),no change with or without drug,0.56,0,0.67,0.99,inactive
Thg1l (GeneID 66628),high cell count with doxorubicin only,2.14,1.18,1.46,1.13,inactive
Snx4 (GeneID 69150),no change with or without drug,-0.9,-1.18,0,0.86,inactive
Slc50a1 (GeneID 19729),no change with or without drug,-0.22,0.84,-0.67,0.92,inactive
Sypl2 (GeneID 17306),low cell count with doxorubicin only,-2.02,-1.52,-1.12,0.76,active
Or4c105 (GeneID 258454),no change with or without drug,0,-0.84,0.67,0.94,inactive
Mrpl55 (GeneID 67212),low cell count with and without drug,-2.25,-3.04,-0.22,0.74,inactive
Slc16a13 (GeneID 69309),no change with or without drug,0.67,0.51,0.45,1,inactive
Rab43 (GeneID 69834),no change with or without drug,-0.45,0.84,-0.9,0.9,inactive
Or2t46 (GeneID 258261),low cell count with doxorubicin only,-2.02,-1.85,-0.9,0.76,active
Padi3 (GeneID 18601),no change with or without drug,-0.67,0.84,-1.12,0.88,inactive
Copa (GeneID 12847),low cell count with and without drug,-6.74,-5.9,-4.61,0.34,inactive
Or4k52 (GeneID 258891),no change with or without drug,1.01,0.17,1.01,1.03,inactive
Hectd3 (GeneID 76608),high cell count with doxorubicin only,2.81,1.85,1.57,1.19,inactive
Ak4 (GeneID 11639),no change with or without drug,0,-0.84,0.67,0.94,inactive
Ddo (GeneID 70503),no change with or without drug,-0.9,-0.84,-0.22,0.86,inactive
Nsmf (GeneID 56876),low cell count with doxorubicin only,-2.36,-0.84,-1.91,0.73,active
Sh2d4b (GeneID 328381),no change with or without drug,-1.24,-0.17,-1.12,0.83,inactive
Fam234b (GeneID 74525),no change with or without drug,0.34,-0.51,0.79,0.97,inactive
Ehd4 (GeneID 98878),no change with or without drug,0,1.18,-0.67,0.94,inactive
Or1j10 (GeneID 258949),low cell count with doxorubicin only,-2.02,0.17,-2.14,0.76,active
Serinc3 (GeneID 26943),no change with or without drug,-0.22,-0.17,0,0.92,inactive
Gk2 (GeneID 14626),low cell count without drug only,-0.67,-3.2,2.02,0.88,inactive
Or5w17 (GeneID 258630),no change with or without drug,0,-0.51,0.45,0.94,inactive
Isy1 (GeneID 57905),low cell count with and without drug,-5.4,-5.9,-2.36,0.46,inactive
Edn2 (GeneID 13615),no change with or without drug,-1.12,-0.51,-0.79,0.84,inactive
Or5j3 (GeneID 259012),no change with or without drug,1.35,-0.17,1.69,1.06,inactive
Hspa1l (GeneID 15482),no change with or without drug,-0.22,-0.17,0,0.92,inactive
Rab20 (GeneID 19332),no change with or without drug,0.67,0.67,0.34,1,inactive
Git1 (GeneID 216963),no change with or without drug,1.12,0.34,1.01,1.04,inactive
Or8a1 (GeneID 406176),no change with or without drug,-1.57,-1.85,-0.34,0.8,inactive
Osbpl3 (GeneID 71720),no change with or without drug,-0.34,-0.84,0.34,0.91,inactive
A330015D16RIK,no change with or without drug,0.45,0.17,0.45,0.98,inactive
Or5au1 (GeneID 258420),no change with or without drug,0.22,-0.51,0.67,0.96,inactive
Acat1 (GeneID 110446),no change with or without drug,-1.91,-1.52,-0.9,0.77,inactive
Eme1 (GeneID 268465),no change with or without drug,-0.34,-0.51,0.11,0.91,inactive

Part of the list above in another layout.
Or5j3 (GeneID 259012)
- combined z-score class: no change with or without drug
- viability z-score with doxorubicin: 1.35
- viability z-score without drug: -0.17
- z-score of drug to no-drug ratio: 1.69
- doxorubicin viability vs non-targeting: 1.06
- outcome: inactive

Hspa1l (GeneID 15482)
- combined z-score class: no change with or without drug
- viability z-score with doxorubicin: -0.22
- viability z-score without drug: -0.17
- z-score of drug to no-drug ratio: 0
- doxorubicin viability vs non-targeting: 0.92
- outcome: inactive

Rab20 (GeneID 19332)
- combined z-score class: no change with or without drug
- viability z-score with doxorubicin: 0.67
- viability z-score without drug: 0.67
- z-score of drug to no-drug ratio: 0.34
- doxorubicin viability vs non-targeting: 1
- outcome: inactive

Git1 (GeneID 216963)
- combined z-score class: no change with or without drug
- viability z-score with doxorubicin: 1.12
- viability z-score without drug: 0.34
- z-score of drug to no-drug ratio: 1.01
- doxorubicin viability vs non-targeting: 1.04
- outcome: inactive
